Measured values published in article PMC4985585.

The chains behind the UniProt entries cited, without tags or fusion partners. Residues count along the entry.
UniProt P17787, residues 26-502: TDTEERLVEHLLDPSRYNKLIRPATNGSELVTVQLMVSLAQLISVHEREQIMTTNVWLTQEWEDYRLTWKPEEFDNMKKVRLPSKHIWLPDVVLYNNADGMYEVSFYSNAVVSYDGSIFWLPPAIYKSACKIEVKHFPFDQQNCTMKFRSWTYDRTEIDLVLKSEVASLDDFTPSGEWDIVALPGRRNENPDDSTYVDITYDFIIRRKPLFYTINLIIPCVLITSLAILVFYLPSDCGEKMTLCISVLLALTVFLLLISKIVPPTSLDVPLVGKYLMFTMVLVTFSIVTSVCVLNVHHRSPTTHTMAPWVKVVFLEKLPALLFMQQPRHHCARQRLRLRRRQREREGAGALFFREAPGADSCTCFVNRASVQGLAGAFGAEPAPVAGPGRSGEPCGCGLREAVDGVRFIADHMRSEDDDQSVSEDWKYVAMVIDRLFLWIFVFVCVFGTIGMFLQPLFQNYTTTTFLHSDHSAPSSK
UniProt Q01814: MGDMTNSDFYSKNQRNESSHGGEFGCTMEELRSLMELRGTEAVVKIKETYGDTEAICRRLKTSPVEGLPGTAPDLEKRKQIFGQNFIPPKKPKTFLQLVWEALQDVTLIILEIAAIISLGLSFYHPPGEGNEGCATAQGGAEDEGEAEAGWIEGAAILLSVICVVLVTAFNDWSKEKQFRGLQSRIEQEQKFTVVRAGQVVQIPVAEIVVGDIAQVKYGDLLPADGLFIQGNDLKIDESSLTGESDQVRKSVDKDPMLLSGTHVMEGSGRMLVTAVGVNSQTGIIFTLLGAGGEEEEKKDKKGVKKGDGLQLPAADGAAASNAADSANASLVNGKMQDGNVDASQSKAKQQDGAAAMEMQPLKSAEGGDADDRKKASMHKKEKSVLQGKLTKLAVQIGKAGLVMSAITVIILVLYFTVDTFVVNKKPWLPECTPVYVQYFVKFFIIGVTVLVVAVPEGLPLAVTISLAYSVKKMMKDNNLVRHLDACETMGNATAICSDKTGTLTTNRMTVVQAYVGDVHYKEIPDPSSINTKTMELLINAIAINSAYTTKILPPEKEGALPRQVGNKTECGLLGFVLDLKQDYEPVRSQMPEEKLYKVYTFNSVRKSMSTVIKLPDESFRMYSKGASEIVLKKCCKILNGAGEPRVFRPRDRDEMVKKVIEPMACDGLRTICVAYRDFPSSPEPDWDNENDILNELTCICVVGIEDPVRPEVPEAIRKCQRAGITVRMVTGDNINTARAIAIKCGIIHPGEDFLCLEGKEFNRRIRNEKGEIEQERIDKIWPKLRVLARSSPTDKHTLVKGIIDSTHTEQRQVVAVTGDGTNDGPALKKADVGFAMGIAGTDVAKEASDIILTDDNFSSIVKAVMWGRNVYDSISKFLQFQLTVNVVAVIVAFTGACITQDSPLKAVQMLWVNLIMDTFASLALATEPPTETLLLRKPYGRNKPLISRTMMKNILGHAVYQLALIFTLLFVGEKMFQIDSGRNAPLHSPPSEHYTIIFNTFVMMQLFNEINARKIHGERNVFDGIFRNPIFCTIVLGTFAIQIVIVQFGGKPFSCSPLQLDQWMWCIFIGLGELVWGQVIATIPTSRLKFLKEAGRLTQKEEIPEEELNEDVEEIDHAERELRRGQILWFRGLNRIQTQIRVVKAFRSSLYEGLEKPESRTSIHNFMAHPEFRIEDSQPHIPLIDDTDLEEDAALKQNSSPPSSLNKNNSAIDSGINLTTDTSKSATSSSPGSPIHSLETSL
UniProt P21579: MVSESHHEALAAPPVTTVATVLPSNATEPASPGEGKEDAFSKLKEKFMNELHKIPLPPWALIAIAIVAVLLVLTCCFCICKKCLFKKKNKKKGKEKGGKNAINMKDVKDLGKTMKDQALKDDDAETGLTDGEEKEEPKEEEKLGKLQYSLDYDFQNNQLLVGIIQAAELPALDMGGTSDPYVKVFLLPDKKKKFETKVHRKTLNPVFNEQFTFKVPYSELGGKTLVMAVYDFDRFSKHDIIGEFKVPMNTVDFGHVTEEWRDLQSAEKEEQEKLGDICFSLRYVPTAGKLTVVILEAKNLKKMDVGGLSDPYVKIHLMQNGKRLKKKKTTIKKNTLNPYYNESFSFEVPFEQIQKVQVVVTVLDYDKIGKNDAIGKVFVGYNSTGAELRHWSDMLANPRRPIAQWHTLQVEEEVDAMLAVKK
UniProt P67936: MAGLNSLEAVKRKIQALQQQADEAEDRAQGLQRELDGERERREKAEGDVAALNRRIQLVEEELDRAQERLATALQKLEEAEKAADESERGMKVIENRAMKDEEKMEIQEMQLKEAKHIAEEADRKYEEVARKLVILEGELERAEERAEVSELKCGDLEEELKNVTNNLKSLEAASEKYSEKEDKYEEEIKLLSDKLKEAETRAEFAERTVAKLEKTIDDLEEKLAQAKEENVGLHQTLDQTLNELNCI
UniProt Q13885: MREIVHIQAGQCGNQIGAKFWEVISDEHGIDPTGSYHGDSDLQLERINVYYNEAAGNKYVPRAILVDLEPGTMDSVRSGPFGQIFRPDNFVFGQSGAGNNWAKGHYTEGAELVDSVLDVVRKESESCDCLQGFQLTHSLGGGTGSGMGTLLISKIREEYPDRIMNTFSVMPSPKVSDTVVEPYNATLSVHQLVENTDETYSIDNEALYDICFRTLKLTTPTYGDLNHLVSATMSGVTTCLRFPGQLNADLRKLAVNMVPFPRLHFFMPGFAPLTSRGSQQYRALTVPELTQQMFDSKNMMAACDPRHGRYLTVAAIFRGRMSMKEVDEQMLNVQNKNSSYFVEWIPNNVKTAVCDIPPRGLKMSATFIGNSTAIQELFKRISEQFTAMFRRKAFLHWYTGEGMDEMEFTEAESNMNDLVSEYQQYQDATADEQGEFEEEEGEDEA
UniProt P04350: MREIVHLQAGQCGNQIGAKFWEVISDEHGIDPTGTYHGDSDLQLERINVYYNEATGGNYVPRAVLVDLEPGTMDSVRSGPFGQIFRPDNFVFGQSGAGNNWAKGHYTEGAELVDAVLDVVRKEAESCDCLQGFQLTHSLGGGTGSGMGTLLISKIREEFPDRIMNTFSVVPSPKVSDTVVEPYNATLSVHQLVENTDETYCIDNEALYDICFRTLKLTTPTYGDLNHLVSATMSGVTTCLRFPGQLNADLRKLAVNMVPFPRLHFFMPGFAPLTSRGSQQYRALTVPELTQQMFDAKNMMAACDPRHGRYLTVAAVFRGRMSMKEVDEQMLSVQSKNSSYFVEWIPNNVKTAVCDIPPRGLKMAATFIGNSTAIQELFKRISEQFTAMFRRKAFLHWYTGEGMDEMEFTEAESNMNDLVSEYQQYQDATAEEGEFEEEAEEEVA
UniProt Q93050: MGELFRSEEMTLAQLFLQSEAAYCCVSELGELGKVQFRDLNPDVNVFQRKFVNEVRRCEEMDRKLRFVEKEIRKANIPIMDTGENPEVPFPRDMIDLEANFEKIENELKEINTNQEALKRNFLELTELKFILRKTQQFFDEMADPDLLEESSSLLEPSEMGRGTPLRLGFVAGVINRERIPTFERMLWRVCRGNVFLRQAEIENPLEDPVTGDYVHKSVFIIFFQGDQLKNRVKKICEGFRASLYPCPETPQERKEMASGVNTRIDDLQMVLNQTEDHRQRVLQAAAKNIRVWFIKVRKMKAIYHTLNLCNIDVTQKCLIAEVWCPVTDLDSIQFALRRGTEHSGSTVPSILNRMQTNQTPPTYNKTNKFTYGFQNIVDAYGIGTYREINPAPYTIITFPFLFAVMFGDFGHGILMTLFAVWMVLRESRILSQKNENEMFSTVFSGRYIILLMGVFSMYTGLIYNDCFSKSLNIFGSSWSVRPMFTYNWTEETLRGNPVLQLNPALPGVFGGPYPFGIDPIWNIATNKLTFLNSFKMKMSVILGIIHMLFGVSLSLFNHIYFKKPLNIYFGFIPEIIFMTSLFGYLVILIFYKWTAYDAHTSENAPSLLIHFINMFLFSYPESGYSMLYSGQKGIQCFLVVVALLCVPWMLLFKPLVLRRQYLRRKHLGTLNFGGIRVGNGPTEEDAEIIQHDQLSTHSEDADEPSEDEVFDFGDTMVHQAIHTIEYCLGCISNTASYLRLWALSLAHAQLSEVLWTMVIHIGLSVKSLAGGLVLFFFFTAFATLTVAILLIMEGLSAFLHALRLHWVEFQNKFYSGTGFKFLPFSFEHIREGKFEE
UniProt P62760: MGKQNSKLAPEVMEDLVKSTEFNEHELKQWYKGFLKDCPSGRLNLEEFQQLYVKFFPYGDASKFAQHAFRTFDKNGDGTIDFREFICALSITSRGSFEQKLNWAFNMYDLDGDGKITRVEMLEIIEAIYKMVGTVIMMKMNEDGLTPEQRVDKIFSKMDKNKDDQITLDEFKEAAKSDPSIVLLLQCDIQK
UniProt P35609: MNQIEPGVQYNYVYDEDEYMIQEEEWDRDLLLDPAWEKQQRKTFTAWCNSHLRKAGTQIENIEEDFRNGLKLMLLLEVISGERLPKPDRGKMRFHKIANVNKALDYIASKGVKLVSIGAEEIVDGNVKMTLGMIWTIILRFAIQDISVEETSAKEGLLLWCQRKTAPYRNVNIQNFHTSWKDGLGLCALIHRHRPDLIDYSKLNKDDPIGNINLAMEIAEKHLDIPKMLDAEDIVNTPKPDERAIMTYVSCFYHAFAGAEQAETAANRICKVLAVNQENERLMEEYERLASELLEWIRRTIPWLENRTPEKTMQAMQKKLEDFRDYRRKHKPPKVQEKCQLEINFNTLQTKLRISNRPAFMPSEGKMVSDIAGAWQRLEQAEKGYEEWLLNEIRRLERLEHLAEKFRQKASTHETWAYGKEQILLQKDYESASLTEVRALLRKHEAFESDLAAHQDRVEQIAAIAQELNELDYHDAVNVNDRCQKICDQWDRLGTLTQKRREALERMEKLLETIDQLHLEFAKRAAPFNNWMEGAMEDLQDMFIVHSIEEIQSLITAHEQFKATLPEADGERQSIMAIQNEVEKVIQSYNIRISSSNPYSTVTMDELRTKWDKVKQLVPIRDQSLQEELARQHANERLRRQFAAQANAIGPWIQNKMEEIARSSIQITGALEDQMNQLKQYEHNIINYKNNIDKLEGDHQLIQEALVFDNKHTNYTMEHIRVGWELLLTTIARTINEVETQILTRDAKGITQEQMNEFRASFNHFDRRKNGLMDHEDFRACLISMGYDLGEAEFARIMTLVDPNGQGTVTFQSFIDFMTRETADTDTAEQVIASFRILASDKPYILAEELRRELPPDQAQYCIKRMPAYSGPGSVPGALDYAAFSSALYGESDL
UniProt O43707: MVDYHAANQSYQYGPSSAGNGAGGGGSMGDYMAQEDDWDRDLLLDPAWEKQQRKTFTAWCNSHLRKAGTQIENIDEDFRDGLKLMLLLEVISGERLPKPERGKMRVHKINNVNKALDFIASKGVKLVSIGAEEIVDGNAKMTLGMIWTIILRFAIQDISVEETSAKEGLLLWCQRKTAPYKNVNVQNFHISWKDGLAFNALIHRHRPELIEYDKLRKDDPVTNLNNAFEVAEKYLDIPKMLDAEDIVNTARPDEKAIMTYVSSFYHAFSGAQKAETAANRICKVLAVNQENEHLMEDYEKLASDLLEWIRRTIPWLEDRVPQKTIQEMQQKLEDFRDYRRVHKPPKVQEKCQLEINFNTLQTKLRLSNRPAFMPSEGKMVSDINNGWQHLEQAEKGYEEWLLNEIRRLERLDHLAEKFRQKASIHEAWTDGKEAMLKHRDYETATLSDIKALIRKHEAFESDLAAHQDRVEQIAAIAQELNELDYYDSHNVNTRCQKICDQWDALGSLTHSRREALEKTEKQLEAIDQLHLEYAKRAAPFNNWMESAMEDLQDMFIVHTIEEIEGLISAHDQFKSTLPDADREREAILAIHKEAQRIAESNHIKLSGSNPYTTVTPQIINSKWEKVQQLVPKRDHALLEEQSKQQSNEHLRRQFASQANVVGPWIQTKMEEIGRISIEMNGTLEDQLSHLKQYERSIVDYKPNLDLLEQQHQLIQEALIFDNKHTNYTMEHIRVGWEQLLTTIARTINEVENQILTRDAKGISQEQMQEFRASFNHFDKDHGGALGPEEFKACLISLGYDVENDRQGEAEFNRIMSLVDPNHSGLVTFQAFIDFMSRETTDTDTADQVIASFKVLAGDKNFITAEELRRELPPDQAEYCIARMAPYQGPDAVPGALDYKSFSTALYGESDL
UniProt P61266: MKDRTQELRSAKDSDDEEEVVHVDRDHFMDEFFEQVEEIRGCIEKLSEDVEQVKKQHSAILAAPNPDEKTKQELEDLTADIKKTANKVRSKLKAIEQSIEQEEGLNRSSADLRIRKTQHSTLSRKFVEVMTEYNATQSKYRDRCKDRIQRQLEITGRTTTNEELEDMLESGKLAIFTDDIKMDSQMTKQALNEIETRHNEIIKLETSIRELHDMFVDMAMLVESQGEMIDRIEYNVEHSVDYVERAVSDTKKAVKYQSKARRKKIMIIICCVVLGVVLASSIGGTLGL

The molecules below were run against Neuronal acetylcholine receptor subunit β2 (human (endogenous in temporal cortex)) (UniProt P17787) (assay: affinity purification with mass spectrometry; β2*-nAChRs captured overnight at 4°C on mAb295-coupled M270 Dynabeads from a 0.6% Triton X-100 extract of postmortem human temporal cortex membranes; homogenate cross-linked with 1 mM DSP before extraction; eluted with 0.1 M NH4OH, 1 mM EDTA, pH 10; label-free LC-MS/MS (Orbitrap Elite); 18 samples from tobacco users and non-users, with or without a mood disorder).

| binding | Molecule |
| --- | --- |
| binds | Plasma membrane calcium-transporting ATPase 2 (from UniProt Q01814 1-1243) |
| binds | Serum albumin (from UniProt P02768 25-609) |
| binds | Sodium/potassium-transporting ATPase subunit α2 (from UniProt P50993 1-1020) |
| binds | Sodium/potassium-transporting ATPase subunit α3 (from UniProt P13637 1-1013) |
| binds | Spectrin α chain, nonerythrocytic 1 (from UniProt Q13813 1-2472) |
| binds | Spectrin β chain, nonerythrocytic 1 (from UniProt Q01082 1-2364) |
| binds | Spectrin β chain, nonerythrocytic 2 (from UniProt O15020 1-2390) |
| binds | Synaptotagmin-1 (from UniProt P21579 1-422) |
| binds | Syntaxin-binding protein 1 (from UniProt P61764 1-594) |
| binds | Tropomyosin α4 chain (from UniProt P67936 1-248) |
| binds | Tubulin α4A chain (from UniProt P68366 1-448) |
| binds | Tubulin β2A chain (from UniProt Q13885 1-445) |
| binds | Tubulin β3 chain (from UniProt Q13509 1-450) |
| binds | Tubulin β4A chain (from UniProt P04350 1-444) |
| binds | Tubulin β chain (from UniProt P07437 1-444) |
| binds | Unconventional myosin-Va (from UniProt Q9Y4I1 1-1855) |
| binds | V-type proton ATPase 116 kDa subunit a isoform 1 (from UniProt Q93050 1-837) |
| binds | V-type proton ATPase subunit d 1 (from UniProt P61421 1-351) |
| binds | Vesicle-fusing ATPase (from UniProt P46459 1-744) |

| binding | Molecule |
| --- | --- |
| binds | Visinin-like protein 1 (from UniProt P62760 1-191) |
| binds | α-Actinin-1 (from UniProt P12814 1-892) |
| binds | α-Actinin-2 (from UniProt P35609 1-894) |
| binds | α-Actinin-4 (from UniProt O43707 1-911) |
| binds | α-Adducin (from UniProt P35611 1-737) |
| binds | Single-stranded DNA-binding protein, mito (protein, UniProt Q04837 17-148) ESETTTSLVLERSLNRVHLLGRVGQDPVLRQVEGKNPVTIFSLATNEMWRSGDSEVYQLGDVSQKTTWHRISVFRPGLRDVAYQYVKKGSRIYLEGKIDYGEYMDKNNVRRQATTIIADNIIFLSDQTKEKE |
| binds | Myelin-oligodendrocyte glycoprotein (protein, UniProt Q16653 30-247) GQFRVIGPRHPIRALVGDEVELPCRISPGKNATGMEVGWYRPPFSRVVHLYRNGKDQDGDQAPEYRGRTELLKDAIGEGKVTLRIRNVRFSDEGGFTCFFRDHSYQEEAAMELKVEDPFYWVSPGVLVLLAVLPVLLLQITVGLIFLCLQYRLRGKLRAEIENLHRTFDPHFLRVPCWKITLFVIVPVLGPLVALIICYNWLHRRLAGQFLEELRNPF |
| binds | Heat shock 70 kDa protein 12A (protein, UniProt O43301 1-675) MADKEAGGSDGPRETAPTSAYSSPARSLGDTGITPLSPSHIVNDTDSNVSEQQSFLVVVAVDFGTTSSGYAYSFTKEPECIHVMRRWEGGDPGVSNQKTPTTILLTPERKFHSFGYAARDFYHDLDPNEAKQWLYLEKFKMKLHTTGDLTMDTDLTAANGKKVKALEIFAYALQYFKEQALKELSDQAGSEFENSDVRWVITVPAIWKQPAKQFMRQAAYQAGLASPENSEQLIIALEPEAASIYCRKLRLHQMIELSSKAAVNGYSGSDTVGAGFTQAKEHIRRNRQSRTFLVENVIGEIWSELEEGDKYVVVDSGGGTVDLTVHQIRLPEGHLKELYKATGGPYGSLGVDYEFEKLLYKIFGEDFIEQFKIKRPAAWVDLMIAFESRKRAAAPDRTNPLNITLPFSFIDYYKKFRGHSVEHALRKSNVDFVKWSSQGMLRMSPDAMNALFKPTIDSIIEHLRDLFQKPEVSTVKFLFLVGGFAEAPLLQQAVQAAFGDQCRIIIPQDVGLTILKGAVLFGLDPAVIKVRRSPLTYGVGVLNRYVEGKHPPEKLLVKDGTRWCTDVFDKFISADQSVALGELVKRSYTPAKPSQLVIVINIYSSEHDNVSFITDPGVKKCGTLRLDLTGTSGTAVPARREIQTLMQFGDTEIKATAIDIATSKSVKVGIDFLNY |
| binds | 14-3-3 protein γ (protein, UniProt P61981 1-247) MVDREQLVQKARLAEQAERYDDMAAAMKNVTELNEPLSNEERNLLSVAYKNVVGARRSSWRVISSIEQKTSADGNEKKIEMVRAYREKIEKELEAVCQDVLSLLDNYLIKNCSETQYESKVFYLKMKGDYYRYLAEVATGEKRATVVESSEKAYSEAHEISKEHMQPTHPIRLGLALNYSVFYYEIQNAPEQACHLAKTAFDDAIAELDTLNEDSYKDSTLIMQLLRDNLTLWTSDQQDDDGGEGNN |
| binds | Myelin proteolipid protein (protein, UniProt P60201 1-277) MGLLECCARCLVGAPFASLVATGLCFFGVALFCGCGHEALTGTEKLIETYFSKNYQDYEYLINVIHAFQYVIYGTASFFFLYGALLLAEGFYTTGAVRQIFGDYKTTICGKGLSATVTGGQKGRGSRGQHQAHSLERVCHCLGKWLGHPDKFVGITYALTVVWLLVFACSAVPVYIYFNTWTTCQSIAFPSKTSASIGSLCADARMYGVLPWNAFPGKVCGSNLLSICKTAEFQMTFHLFIAAFVGAAATLVSLLTFMIAATYNFAVLKLMGRGTKF |
| binds | Neurofilament light polypeptide (protein, UniProt P07196 1-543) MSSFSYEPYYSTSYKRRYVETPRVHISSVRSGYSTARSAYSSYSAPVSSSLSVRRSYSSSSGSLMPSLENLDLSQVAAISNDLKSIRTQEKAQLQDLNDRFASFIERVHELEQQNKVLEAELLVLRQKHSEPSRFRALYEQEIRDLRLAAEDATNEKQALQGEREGLEETLRNLQARYEEEVLSREDAEGRLMEARKGADEAALARAELEKRIDSLMDEISFLKKVHEEEIAELQAQIQYAQISVEMDVTKPDLSAALKDIRAQYEKLAAKNMQNAEEWFKSRFTVLTESAAKNTDAVRAAKDEVSESRRLLKAKTLEIEACRGMNEALEKQLQELEDKQNADISAMQDTINKLENELRTTKSEMARYLKEYQDLLNVKMALDIEIAAYRKLLEGEETRLSFTSVGSITSGYSQSSQVFGRSAYGGLQTSSYLMSTRSFPSYYTSHVQEEQIEVEETIEAAKAEEAKDEPPSEGEAEEEEKDKEEAEEEEAAEEEEAAKEESEEAKEEEEGGEGEEGEETKEAEEEEKKVEGAGEEQAAKKKD |
| binds | Protein S100-A7 (protein, UniProt P31151 1-101) MSNTQAERSIIGMIDMFHKYTRRDDKIEKPSLLTMMKENFPNFLSACDKKGTNYLADVFEKKDKNEDKKIDFSEFLSLLGDIATDYHKQSHGAAPCSGGSQ |
| binds | Neuronal membrane glycoprotein M6-a (protein, UniProt P51674 1-278) MEENMEEGQTQKGCFECCIKCLGGIPYASLIATILLYAGVALFCGCGHEALSGTVNILQTYFEMARTAGDTLDVFTMIDIFKYVIYGIAAAFFVYGILLMVEGFFTTGAIKDLYGDFKITTCGRCVSAWFIMLTYLFMLAWLGVTAFTSLPVYMYFNLWTICRNTTLVEGANLCLDLRQFGIVTIGEEKKICTVSENFLRMCESTELNMTFHLFIVALAGAGAAVIAMVHYLMVLSANWAYVKDACRMQKYEDIKSKEEQELHDIHSTRSKERLNAYT |
| binds | Dynamin-1 (protein, UniProt Q05193 1-864) MGNRGMEDLIPLVNRLQDAFSAIGQNADLDLPQIAVVGGQSAGKSSVLENFVGRDFLPRGSGIVTRRPLVLQLVNATTEYAEFLHCKGKKFTDFEEVRLEIEAETDRVTGTNKGISPVPINLRVYSPHVLNLTLVDLPGMTKVPVGDQPPDIEFQIRDMLMQFVTKENCLILAVSPANSDLANSDALKVAKEVDPQGQRTIGVITKLDLMDEGTDARDVLENKLLPLRRGYIGVVNRSQKDIDGKKDITAALAAERKFFLSHPSYRHLADRMGTPYLQKVLNQQLTNHIRDTLPGLRNKLQSQLLSIEKEVEEYKNFRPDDPARKTKALLQMVQQFAVDFEKRIEGSGDQIDTYELSGGARINRIFHERFPFELVKMEFDEKELRREISYAIKNIHGIRTGLFTPDMAFETIVKKQVKKIREPCLKCVDMVISELISTVRQCTKKLQQYPRLREEMERIVTTHIREREGRTKEQVMLLIDIELAYMNTNHEDFIGFANAQQRSNQMNKKKTSGNQDEILVIRKGWLTINNIGIMKGGSKEYWFVLTAENLSWYKDDEEKEKKYMLSVDNLKLRDVEKGFMSSKHIFALFNTEQRNVYKDYRQLELACETQEEVDSWKASFLRAGVYPERVGDKEKASETEENGSDSFMHSMDPQLERQVETIRNLVDSYMAIVNKTVRDLMPKTIMHLMINNTKEFIFSELLANLYSCGDQNTLMEESAEQAQRRDEMLRMYHALKEALSIIGDINTTTVSTPMPPPVDDSWLQVQSVPAGRRSPTSSPTPQRRAPAVPPARPGSRGPAPGPPPAGSALGGAPPVPSRPGASPDPFGPPPQVPSRPNRAPPGVPSRSGQASPSRPESPRPPFDL |
| binds | Protein S100-A8 (protein, UniProt P05109 1-93) MLTELEKALNSIIDVYHKYSLIKGNFHAVYRDDLKKLLETECPQYIRKKGADVWFKELDINTDGAVNFQEFLILVIKMGVAAHKKSHEESHKE |
| binds | Thy-1 membrane glycoprotein (protein, UniProt P04216 20-130) QKVTSLTACLVDQSLRLDCRHENTSSSPIQYEFSLTRETKKHVLFGTVGVPEHTYRSRTNFTSKYNMKVLYLSAFTSKDEGTYTCALHHSGHSPPISSQNVTVLRDKLVKC |
| binds | Myosin regulatory light chain 12A (protein, UniProt P19105 1-171) MSSKRTKTKTKKRPQRATSNVFAMFDQSQIQEFKEAFNMIDQNRDGFIDKEDLHDMLASLGKNPTDEYLDAMMNEAPGPINFTMFLTMFGEKLNGTDPEDVIRNAFACFDEEATGTIQEDYLRELLTTMGDRFTDEEVDELYREAPIDKKGNFNYIEFTRILKHGAKDKDD |
| binds | Protein S100-A9 (protein, UniProt P06702 1-114) MTCKMSQLERNIETIINTFHQYSVKLGHPDTLNQGEFKELVRKDLQNFLKKENKNEKVIEHIMEDLDTNADKQLSFEEFIMLMARLTWASHEKMHEGDEGPGHHHKPGLGEGTP |

| Molecule | binding |
| --- | --- |
| Syntaxin-1B (from UniProt P61266 1-288) | binds |

No constants are given. Whether binding was seen depends on the method and setting. Binding seen in cells or lysates may run through a third protein. A yes stands for co-enrichment or nearness to the bait. Other partners may have been found.
